In paper PMC12146848, “Deciphering meiotic chromatin organization by SYCP3”:
A weaker result is weaker than the reference pair of the same experiment. Tags and fusion partners may be left off the protein sequences shown. For at least one entry, the source does not settle the construct or the ends of the probe. At least one verdict was read from the data and is not stated in words by the source.

Target: T1, SYCP3 (Mus musculus) (UniProt P70281)
T1 sequence: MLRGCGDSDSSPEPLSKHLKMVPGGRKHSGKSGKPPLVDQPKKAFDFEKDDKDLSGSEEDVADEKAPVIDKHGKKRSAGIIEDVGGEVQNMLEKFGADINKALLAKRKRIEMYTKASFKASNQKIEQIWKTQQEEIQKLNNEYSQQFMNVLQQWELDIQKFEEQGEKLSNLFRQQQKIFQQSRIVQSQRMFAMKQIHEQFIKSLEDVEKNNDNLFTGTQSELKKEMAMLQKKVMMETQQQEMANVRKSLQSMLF
Assay: EMSA
Conditions: Beyotime GS008 Gel-Shift binding buffer (composition and pH not given), 15 ul, 1 h at room temperature, 4% polyacrylamide gel, recombinant protein, protein details: C-terminal 6xHis, label: 3' biotin-dUTP added by TdT on both strands

**Q.** Does “ACAGTCCTGGTGATTGAACTCCGGCCCTGGGCATGCCAGGCGAGCACTCCACTCTTTGAG (double strand) [Probe-5mC]” bind (significantly weakened vs unmethylated probe, all cytosines 5-methyl-dC on both strands)?
**A.** Result: binds more weakly

**Q.** Does “ACAGTCCTGGTGATTGAACTCCGGCCCTGGGCATGCCAGGCGAGCACTCCACTCTTTGAG (double strand) [WT Probe]” bind (with 1,6-hexanediol, modest reduction)?
**A.** Result: binds more weakly

**Q.** Does “CGAACCAATCGACGAAAACAAAACTCAAATCACAACAATGAGACTTCTCCAAAGAAATCT (double strand) [Mut probe']” bind (stronger than WT Probe')?
**A.** Result: binds

**Q.** Does “TAGGTTGGCTAGTAGGGGTGGGGTCTGGGCTGTGGTGGCAGAGTCCTCTTGGGAGGGCTC (double strand) [WT Probe']” bind?
**A.** Result: binds
